Data as given in the supplement of paper PMC11732987, “Enantioselective OTUD7B fragment discovery through chemoproteomics screening and high-throughput optimisation” (Communications Chemistry, 2025).
Some of the results follow. The data scatter; read single values as rough.

Chains of the proteins cited; added tags and fusions are not shown. Lines headed by an entry give the natural chain unless they say otherwise; changes in a name come on top. Residues count along the entry.
UniProt P51798: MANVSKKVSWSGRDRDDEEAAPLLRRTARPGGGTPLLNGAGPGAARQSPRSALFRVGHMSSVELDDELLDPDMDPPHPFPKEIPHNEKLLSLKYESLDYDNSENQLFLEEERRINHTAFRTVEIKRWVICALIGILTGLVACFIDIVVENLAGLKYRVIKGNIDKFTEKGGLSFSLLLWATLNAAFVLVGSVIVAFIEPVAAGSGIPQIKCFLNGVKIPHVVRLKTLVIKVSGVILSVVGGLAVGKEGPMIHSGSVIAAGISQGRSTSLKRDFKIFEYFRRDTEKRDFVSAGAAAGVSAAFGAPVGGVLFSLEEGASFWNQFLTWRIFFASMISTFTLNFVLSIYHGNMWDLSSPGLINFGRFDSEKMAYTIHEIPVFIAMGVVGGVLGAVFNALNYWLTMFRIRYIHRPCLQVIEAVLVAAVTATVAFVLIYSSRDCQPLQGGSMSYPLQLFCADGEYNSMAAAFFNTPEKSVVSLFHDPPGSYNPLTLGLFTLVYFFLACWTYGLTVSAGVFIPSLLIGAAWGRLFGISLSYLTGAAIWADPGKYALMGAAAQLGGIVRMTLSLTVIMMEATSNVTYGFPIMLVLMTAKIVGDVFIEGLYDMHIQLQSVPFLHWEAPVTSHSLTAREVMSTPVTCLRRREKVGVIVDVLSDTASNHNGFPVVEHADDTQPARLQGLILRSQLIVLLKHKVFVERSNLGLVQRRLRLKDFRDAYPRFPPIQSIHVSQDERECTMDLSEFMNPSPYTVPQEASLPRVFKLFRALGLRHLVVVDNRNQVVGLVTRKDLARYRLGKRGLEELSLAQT
UniProt Q8NI60: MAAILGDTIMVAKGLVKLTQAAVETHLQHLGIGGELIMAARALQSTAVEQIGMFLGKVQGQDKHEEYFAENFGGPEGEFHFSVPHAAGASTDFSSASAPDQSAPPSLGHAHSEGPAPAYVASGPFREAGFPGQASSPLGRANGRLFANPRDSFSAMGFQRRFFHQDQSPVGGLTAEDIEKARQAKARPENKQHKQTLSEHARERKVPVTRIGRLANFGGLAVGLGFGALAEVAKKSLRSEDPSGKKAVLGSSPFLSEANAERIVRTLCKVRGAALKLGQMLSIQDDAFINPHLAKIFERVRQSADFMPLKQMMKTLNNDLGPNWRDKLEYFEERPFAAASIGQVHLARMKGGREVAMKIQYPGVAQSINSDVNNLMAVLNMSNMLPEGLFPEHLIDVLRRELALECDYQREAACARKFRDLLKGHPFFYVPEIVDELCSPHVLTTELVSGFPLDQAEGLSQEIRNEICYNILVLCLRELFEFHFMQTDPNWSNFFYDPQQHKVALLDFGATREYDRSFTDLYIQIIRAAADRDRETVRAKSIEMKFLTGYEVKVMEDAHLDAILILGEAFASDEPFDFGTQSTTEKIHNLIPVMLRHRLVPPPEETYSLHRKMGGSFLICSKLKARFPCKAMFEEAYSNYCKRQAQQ
UniProt Q6P4Q7, 725-746: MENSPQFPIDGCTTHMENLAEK
UniProt O76071, 223-242: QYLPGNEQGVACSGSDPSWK
UniProt P53621: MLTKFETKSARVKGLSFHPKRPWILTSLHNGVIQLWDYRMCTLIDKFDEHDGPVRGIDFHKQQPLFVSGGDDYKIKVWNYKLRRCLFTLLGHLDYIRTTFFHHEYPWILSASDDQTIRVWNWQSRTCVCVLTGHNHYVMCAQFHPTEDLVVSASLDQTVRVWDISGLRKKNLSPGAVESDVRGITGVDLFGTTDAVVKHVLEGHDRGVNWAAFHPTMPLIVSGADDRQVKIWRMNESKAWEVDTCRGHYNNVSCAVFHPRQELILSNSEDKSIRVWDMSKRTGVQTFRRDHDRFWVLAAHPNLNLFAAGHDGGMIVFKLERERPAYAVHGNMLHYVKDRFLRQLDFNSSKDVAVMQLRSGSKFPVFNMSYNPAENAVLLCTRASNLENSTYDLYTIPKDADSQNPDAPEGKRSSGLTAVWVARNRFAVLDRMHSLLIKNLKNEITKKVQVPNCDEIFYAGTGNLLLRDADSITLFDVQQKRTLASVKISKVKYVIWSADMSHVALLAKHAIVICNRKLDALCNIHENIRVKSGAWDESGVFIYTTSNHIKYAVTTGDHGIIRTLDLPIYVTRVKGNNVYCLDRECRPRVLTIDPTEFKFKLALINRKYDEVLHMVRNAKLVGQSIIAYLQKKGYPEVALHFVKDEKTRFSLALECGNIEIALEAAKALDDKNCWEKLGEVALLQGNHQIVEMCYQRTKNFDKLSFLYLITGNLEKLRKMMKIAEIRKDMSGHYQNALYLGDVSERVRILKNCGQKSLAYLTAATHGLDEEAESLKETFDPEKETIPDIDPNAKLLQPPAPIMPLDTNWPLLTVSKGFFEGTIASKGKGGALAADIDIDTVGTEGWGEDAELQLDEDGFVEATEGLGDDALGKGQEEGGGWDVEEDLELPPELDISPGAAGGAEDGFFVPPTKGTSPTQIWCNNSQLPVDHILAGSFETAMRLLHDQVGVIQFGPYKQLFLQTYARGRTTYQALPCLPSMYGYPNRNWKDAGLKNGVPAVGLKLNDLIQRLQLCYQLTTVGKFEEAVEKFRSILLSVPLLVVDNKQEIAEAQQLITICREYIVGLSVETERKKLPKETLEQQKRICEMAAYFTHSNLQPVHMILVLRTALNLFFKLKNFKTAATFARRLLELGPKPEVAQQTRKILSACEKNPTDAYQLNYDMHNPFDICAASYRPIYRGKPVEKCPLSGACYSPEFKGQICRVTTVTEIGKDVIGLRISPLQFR
UniProt Q99829: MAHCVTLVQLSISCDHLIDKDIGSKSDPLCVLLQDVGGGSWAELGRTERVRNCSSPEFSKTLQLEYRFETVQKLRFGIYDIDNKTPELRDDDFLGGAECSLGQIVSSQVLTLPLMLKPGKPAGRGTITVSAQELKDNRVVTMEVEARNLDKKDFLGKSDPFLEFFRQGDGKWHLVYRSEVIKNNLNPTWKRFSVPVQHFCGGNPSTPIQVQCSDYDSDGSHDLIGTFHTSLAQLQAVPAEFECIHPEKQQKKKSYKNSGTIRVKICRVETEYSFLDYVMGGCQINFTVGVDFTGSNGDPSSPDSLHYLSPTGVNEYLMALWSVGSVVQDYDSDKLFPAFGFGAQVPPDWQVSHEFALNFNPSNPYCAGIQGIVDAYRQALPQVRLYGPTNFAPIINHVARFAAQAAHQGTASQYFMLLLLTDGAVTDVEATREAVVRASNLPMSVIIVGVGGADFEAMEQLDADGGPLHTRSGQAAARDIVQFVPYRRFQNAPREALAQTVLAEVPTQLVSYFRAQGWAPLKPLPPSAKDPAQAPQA
UniProt Q14019: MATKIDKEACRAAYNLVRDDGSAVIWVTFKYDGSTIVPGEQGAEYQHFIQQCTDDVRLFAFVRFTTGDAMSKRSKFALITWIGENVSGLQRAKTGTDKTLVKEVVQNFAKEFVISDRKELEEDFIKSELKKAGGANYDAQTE
UniProt Q9ULV3: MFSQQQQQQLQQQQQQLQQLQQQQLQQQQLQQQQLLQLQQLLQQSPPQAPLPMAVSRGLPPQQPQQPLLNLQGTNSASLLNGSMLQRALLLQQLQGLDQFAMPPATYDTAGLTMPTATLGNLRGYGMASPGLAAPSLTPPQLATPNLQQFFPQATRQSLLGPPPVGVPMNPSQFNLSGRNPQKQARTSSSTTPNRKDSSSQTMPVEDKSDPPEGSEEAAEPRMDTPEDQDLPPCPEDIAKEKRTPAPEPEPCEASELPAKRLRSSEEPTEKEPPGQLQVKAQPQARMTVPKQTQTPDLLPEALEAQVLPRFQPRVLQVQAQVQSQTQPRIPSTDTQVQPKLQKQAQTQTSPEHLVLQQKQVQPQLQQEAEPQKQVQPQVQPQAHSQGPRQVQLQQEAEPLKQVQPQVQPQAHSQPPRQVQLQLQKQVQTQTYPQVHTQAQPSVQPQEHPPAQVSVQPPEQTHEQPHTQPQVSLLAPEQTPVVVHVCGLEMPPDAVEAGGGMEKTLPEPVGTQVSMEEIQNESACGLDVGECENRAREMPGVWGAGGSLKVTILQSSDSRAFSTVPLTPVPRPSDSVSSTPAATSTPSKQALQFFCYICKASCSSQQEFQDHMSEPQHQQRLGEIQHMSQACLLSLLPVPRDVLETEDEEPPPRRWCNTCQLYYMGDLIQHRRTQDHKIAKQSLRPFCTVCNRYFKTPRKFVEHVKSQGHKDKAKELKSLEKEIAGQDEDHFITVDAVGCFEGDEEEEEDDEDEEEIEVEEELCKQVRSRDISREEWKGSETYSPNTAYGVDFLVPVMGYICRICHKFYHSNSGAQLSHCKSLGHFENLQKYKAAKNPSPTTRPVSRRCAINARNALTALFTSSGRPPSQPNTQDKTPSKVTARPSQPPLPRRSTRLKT
UniProt Q9H9A5, 319-340: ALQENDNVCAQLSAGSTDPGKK
UniProt P24386: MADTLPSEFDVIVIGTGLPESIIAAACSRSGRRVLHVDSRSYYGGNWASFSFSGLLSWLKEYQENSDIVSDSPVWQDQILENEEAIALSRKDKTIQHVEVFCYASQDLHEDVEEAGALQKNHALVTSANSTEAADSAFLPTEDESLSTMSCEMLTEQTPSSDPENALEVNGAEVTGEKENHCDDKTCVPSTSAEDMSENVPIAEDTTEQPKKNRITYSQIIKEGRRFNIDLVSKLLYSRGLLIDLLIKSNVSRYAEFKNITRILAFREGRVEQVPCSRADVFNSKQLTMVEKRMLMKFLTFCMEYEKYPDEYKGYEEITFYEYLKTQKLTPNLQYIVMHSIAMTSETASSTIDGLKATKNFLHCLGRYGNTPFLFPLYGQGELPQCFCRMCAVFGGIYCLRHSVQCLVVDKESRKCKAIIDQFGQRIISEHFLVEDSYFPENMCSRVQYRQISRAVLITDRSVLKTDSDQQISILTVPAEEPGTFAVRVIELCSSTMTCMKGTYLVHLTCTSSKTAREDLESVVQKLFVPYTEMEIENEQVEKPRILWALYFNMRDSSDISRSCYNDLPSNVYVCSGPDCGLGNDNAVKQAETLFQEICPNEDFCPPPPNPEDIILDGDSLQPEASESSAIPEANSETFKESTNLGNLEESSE
UniProt Q92828: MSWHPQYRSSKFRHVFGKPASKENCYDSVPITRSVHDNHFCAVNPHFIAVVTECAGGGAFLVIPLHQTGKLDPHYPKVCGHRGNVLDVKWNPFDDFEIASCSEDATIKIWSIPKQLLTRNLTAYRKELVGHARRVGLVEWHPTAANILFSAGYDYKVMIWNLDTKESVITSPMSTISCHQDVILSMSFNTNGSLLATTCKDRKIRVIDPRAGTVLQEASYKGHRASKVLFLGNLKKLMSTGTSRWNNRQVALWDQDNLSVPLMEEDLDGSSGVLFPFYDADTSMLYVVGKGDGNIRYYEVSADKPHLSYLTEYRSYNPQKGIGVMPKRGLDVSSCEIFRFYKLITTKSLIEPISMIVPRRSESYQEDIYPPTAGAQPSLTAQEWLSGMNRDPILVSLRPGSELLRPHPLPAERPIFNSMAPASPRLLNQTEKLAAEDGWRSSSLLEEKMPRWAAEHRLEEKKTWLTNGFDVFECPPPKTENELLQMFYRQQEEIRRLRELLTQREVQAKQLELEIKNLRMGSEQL
UniProt Q9NRP2: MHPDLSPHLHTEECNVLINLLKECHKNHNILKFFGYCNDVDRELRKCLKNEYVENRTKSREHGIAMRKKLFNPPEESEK
UniProt O15111: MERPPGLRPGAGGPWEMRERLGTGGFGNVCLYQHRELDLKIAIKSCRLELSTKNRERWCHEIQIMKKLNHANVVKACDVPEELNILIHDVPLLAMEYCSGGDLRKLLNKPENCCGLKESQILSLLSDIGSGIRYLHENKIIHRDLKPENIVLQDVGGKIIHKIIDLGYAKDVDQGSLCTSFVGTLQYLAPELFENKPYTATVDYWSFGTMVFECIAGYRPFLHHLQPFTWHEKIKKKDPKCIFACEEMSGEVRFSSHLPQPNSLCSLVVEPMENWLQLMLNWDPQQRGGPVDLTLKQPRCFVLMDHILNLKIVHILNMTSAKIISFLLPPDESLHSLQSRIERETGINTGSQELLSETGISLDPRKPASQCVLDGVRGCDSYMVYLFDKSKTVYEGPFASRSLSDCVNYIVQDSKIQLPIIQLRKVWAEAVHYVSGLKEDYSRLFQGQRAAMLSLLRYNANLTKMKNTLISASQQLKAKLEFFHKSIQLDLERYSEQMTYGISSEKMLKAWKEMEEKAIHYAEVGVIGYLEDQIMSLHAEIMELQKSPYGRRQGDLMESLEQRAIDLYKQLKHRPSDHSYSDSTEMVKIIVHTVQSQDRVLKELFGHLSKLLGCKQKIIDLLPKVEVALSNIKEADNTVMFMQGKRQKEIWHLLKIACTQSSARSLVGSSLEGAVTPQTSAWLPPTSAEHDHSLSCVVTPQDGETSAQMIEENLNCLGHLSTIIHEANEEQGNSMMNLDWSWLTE
UniProt Q9BSW2, 322-342: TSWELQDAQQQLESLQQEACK

compound: ClCC(=O)N[C@H]1CCCc2ccccc12; assay: log2 mean competition ratio of IA-DTB cysteine labelling (DMSO/compound) (log2 ratio); higher = stronger cysteine engagement by compound; details: 200 µM; treatment time: 4 h; cell line lysate: HEK293T
Procedure: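 IA-DTB competitive cysteine chemoproteomics in HEK293T RIPA lysate. Lysates were treated with compound 29 or 30 at 50 or 200 µM for 4 h, then IA-DTB (500 µM, 1 h), trypsin-digested, NeutrAvidin-enriched and analysed by diaPASEF. Competition ratio = intensity DMSO / intensity compound (n=4 treated, n=64 DMSO); binding: mean log2 CR ≥ 1 and p ≤ 0.05 plus QC filters. Target is the cysteine site.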

Target | log2 mean competition ratio
CLCN7 C211 (UniProt P51798) | -0.263
CPSF4 C55 (UniProt O95639) | 0.372
CPNE3 C54 (UniProt O75131) | 0.194
COPS2 C179 (UniProt P61201) | -0.367
COQ8A C620 (UniProt Q8NI60) | 0.152
CNNM4 C736 (UniProt Q6P4Q7) | -0.37
CLMN C353 | -0.136
CLCN7 C637 (UniProt P51798) | 0.0852
CIAO1 C234 (UniProt O76071) | 0.176
COPA C514 (UniProt P53621) | -0.0654
CPNE1 C53 (UniProt Q99829) | -0.361
CLTCL1 C459 (UniProt P53675) | -0.0394
COTL1 C10 (UniProt Q14019) | -0.0326
CLSTN3 C66 (UniProt Q9BQT9) | -0.0208
CIZ1 C234 (UniProt Q9ULV3) | 0.406
COG6 C234 (UniProt Q9Y2V7) | 0.335
CNOT10 C327 (UniProt Q9H9A5) | -0.277
COLGALT1 C369 (UniProt Q8NBJ5) | 0.153
CHERP C69 (UniProt Q8IWX8) | 0.0292

A different layout for some results above:

| Target | log2 mean competition ratio |
| --- | --- |
| CNNM4 C736 (UniProt Q6P4Q7) | -0.37 |
| CLMN C353 | -0.136 |
| CLCN7 C637 (UniProt P51798) | 0.0852 |
| CIAO1 C234 (UniProt O76071) | 0.176 |
| COPA C514 (UniProt P53621) | -0.0654 |
| CPNE1 C53 (UniProt Q99829) | -0.361 |
| CLTCL1 C459 (UniProt P53675) | -0.0394 |
| COTL1 C10 (UniProt Q14019) | -0.0326 |

(continued)

Target | log2 mean competition ratio
CHM C276 (UniProt P24386) | -0.158
CLGN C511 (UniProt O14967) | 0.177
CORO2A C25 (UniProt Q92828) | -0.0109
CMC2 C37 (UniProt Q9NRP2) | 0.146
COPG1 C129 (UniProt Q9Y678) | 0.244
COG7 C505 (UniProt P83436) | 0.144
CHTF8 C83 | -0.053
CHUK C371 (UniProt O15111) | 0.292
CORO7 C505 (UniProt P57737) | -0.0816
COBLL1 C177 (UniProt Q53SF7) | -0.131
COPA C245 (UniProt P53621) | 0.0814
CLASP2 C198 (UniProt O75122) | 0.139
CPSF4 C82 (UniProt O95639) | 0.0682
CORO7 C695 (UniProt P57737) | -0.00535
CRACD C1228 | 0.14
CLASP1 C453 (UniProt Q7Z460) | 0.201
CRACR2A C341 (UniProt Q9BSW2) | 0.142
CLK3 C294 (UniProt P49761) | 0.122
